Measurements published in patent publication US20240124881.
The exact form of at least one protein or probe is not confirmed. At least one result comes from cells or an extract, where the contact may be indirect. For some of these results: Protein sequences can lack the tags named with them.

By UniProt entry, the sequences of proteins in these tests, tags left out.
UniProt Q8CJG0, whole entry: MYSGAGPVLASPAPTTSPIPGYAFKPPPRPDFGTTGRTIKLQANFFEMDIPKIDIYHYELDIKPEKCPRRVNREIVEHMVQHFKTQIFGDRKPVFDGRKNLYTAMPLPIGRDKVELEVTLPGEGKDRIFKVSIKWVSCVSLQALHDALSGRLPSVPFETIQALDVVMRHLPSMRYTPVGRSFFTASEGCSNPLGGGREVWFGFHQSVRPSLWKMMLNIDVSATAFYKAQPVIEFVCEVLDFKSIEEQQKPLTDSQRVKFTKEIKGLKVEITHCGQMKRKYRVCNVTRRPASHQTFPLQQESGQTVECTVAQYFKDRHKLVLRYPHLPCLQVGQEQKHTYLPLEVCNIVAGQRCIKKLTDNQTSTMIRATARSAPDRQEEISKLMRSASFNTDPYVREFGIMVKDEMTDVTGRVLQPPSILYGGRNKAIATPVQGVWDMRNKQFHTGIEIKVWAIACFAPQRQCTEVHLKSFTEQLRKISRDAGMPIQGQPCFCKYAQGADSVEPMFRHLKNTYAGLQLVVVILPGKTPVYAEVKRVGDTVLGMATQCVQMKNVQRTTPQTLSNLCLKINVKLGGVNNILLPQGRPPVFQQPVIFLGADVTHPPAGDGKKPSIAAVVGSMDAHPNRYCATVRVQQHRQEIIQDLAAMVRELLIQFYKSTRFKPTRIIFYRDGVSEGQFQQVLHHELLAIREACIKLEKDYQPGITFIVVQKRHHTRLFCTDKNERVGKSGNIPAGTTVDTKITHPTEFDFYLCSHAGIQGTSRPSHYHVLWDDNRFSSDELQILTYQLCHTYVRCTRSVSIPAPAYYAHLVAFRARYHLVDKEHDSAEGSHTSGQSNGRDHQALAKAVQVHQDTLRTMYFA

Assays:
DHX36 (Mus musculus) = biological target: T1, DHX36 (Mus musculus) (UniProt Q8VHK9); experiment: pull-down; settings: N2a lysate, mass spectrometry; highest enrichment versus mutated sequences; protein in an extract; protein details: endogenous, Neuro2a cell lysate; label: biotin (Biotin RNA labeling mix)
T1 sequence (looked up, limits assumed): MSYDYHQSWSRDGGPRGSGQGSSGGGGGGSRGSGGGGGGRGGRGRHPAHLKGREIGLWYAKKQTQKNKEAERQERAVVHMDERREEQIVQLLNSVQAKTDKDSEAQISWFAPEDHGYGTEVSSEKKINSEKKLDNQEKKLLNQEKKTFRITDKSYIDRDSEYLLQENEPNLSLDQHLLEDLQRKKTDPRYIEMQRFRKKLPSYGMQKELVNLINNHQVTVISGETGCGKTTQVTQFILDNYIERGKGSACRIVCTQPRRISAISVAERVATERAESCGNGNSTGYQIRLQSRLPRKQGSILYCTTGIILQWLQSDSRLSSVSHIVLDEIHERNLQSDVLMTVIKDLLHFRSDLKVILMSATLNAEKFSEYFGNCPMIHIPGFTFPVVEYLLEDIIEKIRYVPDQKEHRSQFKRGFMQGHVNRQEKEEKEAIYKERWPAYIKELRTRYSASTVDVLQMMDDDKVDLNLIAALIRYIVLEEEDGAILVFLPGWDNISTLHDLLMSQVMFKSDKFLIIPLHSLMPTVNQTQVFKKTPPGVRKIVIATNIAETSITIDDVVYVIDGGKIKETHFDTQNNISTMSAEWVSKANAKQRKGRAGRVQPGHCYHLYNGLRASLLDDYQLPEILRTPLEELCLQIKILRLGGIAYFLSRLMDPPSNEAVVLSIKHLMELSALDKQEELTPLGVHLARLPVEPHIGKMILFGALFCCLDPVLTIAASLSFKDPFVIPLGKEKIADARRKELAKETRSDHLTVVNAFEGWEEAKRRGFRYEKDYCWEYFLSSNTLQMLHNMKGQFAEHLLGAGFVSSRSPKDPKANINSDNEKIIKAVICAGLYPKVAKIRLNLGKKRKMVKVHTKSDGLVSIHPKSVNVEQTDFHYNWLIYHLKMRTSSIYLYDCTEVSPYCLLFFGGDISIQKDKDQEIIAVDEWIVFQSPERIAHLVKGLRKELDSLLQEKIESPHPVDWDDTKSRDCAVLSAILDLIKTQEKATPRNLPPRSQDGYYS

Ago2 (Mus musculus) = Ago2 (Mus musculus) (UniProt Q8CJG0); experiment: binding assay; settings: CITED Ago2 CLIP, mouse brain; miR-153 guided; protein in cells; protein details: endogenous, mouse brain
PUM1 (Homo sapiens) = biological target: T2, PUM1 (Homo sapiens) (UniProt Q14671); experiment: binding assay; settings: protein in cells, protein details: endogenous
T2 sequence (looked up, limits assumed): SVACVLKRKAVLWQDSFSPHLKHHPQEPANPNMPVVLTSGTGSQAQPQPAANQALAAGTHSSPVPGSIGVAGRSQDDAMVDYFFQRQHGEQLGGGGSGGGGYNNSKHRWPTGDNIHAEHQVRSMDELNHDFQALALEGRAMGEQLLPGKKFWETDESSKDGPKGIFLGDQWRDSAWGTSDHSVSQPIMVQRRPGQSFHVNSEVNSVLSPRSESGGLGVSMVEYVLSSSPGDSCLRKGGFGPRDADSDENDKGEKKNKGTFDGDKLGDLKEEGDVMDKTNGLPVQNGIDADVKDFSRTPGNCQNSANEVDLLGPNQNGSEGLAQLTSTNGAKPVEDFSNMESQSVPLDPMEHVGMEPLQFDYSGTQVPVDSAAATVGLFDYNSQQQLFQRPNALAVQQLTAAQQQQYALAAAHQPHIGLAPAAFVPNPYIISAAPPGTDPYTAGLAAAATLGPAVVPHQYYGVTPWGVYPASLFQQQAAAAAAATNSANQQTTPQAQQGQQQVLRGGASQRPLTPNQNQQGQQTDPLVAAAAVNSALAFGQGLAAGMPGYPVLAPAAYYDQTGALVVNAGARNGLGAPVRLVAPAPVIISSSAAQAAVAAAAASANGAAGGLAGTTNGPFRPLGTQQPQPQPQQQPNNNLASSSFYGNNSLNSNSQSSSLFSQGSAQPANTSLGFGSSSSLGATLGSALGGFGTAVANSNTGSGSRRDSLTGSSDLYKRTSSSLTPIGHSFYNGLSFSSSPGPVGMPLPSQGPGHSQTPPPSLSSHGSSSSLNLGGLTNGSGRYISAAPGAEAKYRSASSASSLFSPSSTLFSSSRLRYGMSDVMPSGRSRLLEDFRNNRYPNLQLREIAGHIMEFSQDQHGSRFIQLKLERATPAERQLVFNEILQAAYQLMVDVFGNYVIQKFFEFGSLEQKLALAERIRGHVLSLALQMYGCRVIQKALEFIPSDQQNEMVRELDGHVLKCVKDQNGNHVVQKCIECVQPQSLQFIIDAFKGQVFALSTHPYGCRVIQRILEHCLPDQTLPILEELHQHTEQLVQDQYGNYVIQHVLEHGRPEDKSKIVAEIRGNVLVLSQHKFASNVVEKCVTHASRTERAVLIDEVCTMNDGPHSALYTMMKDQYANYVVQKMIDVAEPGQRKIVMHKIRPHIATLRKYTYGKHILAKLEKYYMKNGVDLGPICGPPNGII

PUM2 (Homo sapiens) = biological target: T3, PUM2 (Homo sapiens) (UniProt Q8TB72); experiment: binding assay; settings: protein in cells, protein details: endogenous
T3 sequence (looked up, limits assumed): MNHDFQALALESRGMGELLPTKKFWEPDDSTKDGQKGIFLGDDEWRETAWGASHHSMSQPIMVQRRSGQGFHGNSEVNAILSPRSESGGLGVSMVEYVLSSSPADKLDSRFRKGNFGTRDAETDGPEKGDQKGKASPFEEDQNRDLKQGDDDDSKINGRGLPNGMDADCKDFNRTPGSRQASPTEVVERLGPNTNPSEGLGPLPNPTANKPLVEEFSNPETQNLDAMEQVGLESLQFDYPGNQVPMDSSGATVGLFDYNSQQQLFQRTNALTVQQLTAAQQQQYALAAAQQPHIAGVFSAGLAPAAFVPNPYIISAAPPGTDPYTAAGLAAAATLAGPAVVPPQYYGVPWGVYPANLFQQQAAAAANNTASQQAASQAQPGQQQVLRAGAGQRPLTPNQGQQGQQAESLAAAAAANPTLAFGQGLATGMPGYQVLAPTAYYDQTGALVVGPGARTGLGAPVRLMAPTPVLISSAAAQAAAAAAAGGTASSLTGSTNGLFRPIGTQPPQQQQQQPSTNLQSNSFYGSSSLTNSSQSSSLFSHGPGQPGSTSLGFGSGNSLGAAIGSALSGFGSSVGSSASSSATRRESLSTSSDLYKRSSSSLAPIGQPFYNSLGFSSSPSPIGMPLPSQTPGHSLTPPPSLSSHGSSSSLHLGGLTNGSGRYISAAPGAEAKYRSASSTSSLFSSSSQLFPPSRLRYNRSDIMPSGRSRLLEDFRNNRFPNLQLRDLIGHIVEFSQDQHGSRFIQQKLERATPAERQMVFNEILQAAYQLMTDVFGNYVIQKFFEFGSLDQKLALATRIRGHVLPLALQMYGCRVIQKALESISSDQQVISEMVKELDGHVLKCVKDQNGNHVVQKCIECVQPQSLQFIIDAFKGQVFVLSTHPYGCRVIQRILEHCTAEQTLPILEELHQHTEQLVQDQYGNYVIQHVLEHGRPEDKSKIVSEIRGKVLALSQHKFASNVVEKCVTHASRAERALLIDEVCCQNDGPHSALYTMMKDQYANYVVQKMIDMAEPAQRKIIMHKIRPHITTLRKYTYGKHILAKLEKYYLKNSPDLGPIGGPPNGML

Pum1/2 (Mus musculus) = experiment: binding assay; settings: CITED mouse CLIP data; protein in cells; protein details: endogenous
[1] = CITED ENCODE CLIP data, K562 and HCT116

## CACCCCGCUUGAAGAGUUUGAAAUGGACUUUACCACUGAGAAAUCAAGAUGGCAGCCCAUUAUGGGGAAUUGAGGAAAAUGGAUUAAUGCAAGAAUGCUGUAAUAUUAUACAACCAACACAGGAUUCUUUUAAUGUGGAUUCCAUGAAAUGAAUGAUUCUUACCCAACACAAAUGGACAGUGGAAUUUACUUCCUAAAGACUUGUUACAUGUCAUGUACAUUUUUGACAUCUGGAGAAGACUCUACAAUUCUACAAAUGGUAGUUUGUAUUCCUGGAAUUUCUUGCAGUUUGAUCUGAAGUGACCUUAUGGAAUGUUAACUUUAAUAAAAU [Chaserr Exon5-WT]
DHX36 (Mus musculus)
  binding result: binds

## CUAUGCA [Cyrano miR-153 site region]
Ago2 (Mus musculus)
  binding result: binds

## UGUACAUU [PUM1/PUM2 3'UTR motif]
PUM1 (Homo sapiens); CITED ENCODE data
  binding result: binds
PUM2 (Homo sapiens); CITED ENCODE data
  binding result: binds

## UGUAUAG [Cyrano PRE element 6]
Pum1/2 (Mus musculus)
  binding result: binds
PUM1 (Homo sapiens); [1]
  binding result: binds
PUM2 (Homo sapiens); [1]
  binding result: binds
